Experimental data taken from PubChem BioAssay AID2271 (NMMLSC, 2010).
Some of the results follow.

Assay: yeast TOR pathway reporter LAP4-GFP change – cell-based, cherry picks, flow cytometry, mother/daughter gates, confirmation (AID 2271);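 further: ratio of sample to DMSO plate mean so 100% equals DMSO level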
Settings: S. cerevisiae LAP4-GFP strain, 3 h, at 10 µM, stronger effect = higher value, 100 means same as DMSO control
In short: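 System: Alexa 633-stained baker's yeast GFP-fusion strain; quantity: 0.2 OD600 cells; timing: compound exposure 3 h at 30 °C, end-over-end rotation; detection: HT flow cytometry, GFP fluorescence channel; measure: per-gate (all, mother, daughter) GFP response vs DMSO; control set: DMSO-only negative wells, rapamycin 400 ng/mL positive wells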

[1] = measured here: daughter cell gate response
[2] = measured here: mother cell gate response

SMILES: C[N+]1=C2C=CC=CC=C2SC12C([N+](=O)[O-])=CC([N+](=O)[O-])=C[C-]2[N+](=O)[O-] (stereo unspecified)
- GFP response relative to DMSO [1]: 156%
- GFP response relative to DMSO [2]: 171%

SMILES: O=P(Nc1nccs1)(c1ccccc1)c1nc2ccccc2s1 (stereo unspecified)
- GFP response relative to DMSO [1]: 120%
- GFP response relative to DMSO [2]: 131%

SMILES: CCOP(=O)(Nc1cccc2ccccc12)OCC
- GFP response relative to DMSO [1]: 99.1%
- GFP response relative to DMSO [2]: 96.2%
